# These are yes or no findings as the source states them, for the method shown. Some results given as binding are weak or reduced against the parent protein; the word gives no strength.
# Amino acid sequences for entries named in this document (tags omitted). A change or cut given only in a name is not applied to a line headed by its entry.
# UniProt P04386: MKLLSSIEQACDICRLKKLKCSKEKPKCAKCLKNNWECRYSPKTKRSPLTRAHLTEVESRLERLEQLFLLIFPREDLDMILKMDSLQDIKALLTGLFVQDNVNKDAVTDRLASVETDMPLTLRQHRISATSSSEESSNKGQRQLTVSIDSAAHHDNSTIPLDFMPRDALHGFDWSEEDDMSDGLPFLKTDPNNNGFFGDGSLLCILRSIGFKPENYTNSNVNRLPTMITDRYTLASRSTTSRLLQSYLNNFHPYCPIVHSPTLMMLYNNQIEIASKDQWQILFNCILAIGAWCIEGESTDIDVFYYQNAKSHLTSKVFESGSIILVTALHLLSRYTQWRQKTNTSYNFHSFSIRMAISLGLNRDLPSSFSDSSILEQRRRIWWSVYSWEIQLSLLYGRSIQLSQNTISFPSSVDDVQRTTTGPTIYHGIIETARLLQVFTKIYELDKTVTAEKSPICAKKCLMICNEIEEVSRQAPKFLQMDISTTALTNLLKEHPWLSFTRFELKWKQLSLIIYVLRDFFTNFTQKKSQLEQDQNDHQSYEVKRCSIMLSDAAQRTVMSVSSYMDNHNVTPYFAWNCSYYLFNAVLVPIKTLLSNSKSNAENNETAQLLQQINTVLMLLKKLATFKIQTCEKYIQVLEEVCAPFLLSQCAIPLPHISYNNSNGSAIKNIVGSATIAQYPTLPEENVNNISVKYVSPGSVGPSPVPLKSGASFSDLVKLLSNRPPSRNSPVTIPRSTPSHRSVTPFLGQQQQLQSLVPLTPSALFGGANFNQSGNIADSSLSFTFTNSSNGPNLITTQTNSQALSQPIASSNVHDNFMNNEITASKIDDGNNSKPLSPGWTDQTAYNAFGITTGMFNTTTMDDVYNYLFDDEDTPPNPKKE
# UniProt Q9LD43: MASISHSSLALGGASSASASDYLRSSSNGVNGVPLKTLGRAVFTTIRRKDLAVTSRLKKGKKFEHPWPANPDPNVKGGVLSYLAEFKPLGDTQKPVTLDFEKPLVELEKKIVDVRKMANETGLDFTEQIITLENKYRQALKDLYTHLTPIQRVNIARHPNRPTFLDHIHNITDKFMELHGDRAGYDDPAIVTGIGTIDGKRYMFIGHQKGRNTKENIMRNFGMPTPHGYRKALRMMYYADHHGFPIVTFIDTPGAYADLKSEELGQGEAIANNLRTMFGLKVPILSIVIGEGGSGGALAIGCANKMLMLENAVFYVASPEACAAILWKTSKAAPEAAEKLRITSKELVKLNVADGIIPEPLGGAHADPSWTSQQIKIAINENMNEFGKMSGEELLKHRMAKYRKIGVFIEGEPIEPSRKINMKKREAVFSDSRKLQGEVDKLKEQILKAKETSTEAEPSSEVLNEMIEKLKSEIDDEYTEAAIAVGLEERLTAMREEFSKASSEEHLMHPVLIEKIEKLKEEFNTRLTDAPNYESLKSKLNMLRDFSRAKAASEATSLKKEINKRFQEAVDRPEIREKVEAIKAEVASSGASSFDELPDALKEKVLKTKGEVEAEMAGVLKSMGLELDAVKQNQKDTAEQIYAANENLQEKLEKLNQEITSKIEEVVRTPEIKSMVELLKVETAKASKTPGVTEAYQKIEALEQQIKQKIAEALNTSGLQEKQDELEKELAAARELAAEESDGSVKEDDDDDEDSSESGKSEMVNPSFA
# B1: CTI1 (positive clone of the Arabidopsis cDNA library in the yeast two-hybrid screen) (protein, not shown: large carriers)
# chain: MASLSSTSLSLPKNSHQLHPSSGFSLNPNARCVSVSFGLNHSNKLHISAPRTKRILTIQSAYRDDDGSGSTGLFVGGFILGGLIVGALGCVYAPQISKAIAGADRKDLMRKLPKFIYDEEKALEKTRKVLAEKIAQLNSAIDDVSSQLKSEDTPNGAALSTDEIEATA
# Target: α-CT coiled coil domain (30 kDa non-catalytic domain) fused to GAL4 DNA-binding domain (Arabidopsis thaliana) (UniProt P04386+Q9LD43)
# Experiment: yeast two-hybrid screen of Arabidopsis cDNA library, α-CT coiled-coil domain as bait
binder,measurement,value
B1,binding,binds
